The record followed here is paper PMC3757082.

Assay [1] has as its target T1, RSA1, bait RSA1-pDEST32 (Arabidopsis thaliana) (UniProt F4IS91).
T1 sequence: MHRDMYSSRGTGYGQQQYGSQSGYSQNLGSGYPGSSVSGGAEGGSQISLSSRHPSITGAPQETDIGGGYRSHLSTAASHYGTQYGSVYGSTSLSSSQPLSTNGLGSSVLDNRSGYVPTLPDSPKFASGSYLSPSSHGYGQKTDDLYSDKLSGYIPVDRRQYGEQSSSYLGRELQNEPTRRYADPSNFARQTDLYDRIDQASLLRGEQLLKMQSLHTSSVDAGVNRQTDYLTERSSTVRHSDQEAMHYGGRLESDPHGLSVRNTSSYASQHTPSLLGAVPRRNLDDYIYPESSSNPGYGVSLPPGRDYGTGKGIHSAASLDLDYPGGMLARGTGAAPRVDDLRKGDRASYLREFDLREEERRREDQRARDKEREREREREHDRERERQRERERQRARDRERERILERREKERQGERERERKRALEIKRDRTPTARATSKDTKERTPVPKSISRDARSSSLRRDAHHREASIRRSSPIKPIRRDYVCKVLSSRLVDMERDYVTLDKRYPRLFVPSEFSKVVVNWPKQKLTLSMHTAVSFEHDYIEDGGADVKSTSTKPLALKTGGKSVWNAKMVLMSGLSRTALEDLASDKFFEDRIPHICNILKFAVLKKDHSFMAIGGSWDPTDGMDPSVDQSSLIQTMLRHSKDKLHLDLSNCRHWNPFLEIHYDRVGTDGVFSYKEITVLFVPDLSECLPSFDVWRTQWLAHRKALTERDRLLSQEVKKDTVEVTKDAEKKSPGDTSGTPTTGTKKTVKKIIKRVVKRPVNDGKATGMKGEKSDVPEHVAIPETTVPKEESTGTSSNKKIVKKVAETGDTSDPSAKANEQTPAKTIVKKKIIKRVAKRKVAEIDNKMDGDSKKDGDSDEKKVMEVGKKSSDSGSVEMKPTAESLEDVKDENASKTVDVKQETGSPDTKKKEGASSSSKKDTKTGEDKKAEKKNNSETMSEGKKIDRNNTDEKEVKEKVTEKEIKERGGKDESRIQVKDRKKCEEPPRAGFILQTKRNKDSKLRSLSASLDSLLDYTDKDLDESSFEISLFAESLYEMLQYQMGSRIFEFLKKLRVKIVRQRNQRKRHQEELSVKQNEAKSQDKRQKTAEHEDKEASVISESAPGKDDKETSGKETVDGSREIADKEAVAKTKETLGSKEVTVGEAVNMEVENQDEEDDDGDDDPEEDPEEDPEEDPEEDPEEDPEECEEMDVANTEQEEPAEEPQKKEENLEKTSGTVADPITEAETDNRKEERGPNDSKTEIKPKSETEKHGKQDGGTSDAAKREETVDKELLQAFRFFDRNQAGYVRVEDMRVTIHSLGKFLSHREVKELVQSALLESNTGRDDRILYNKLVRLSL
The assay can be described thus: two-hybrid; RSA1 with RITF1 homologs in pDEST22, yeast strain MaV203, x-gal assay and growth on SD-L-W-H+3-AT.

Assay [2] concerns the target T2, HA-RITF1 (Arabidopsis thaliana) (UniProt Q9C8Z9).
T2 sequence: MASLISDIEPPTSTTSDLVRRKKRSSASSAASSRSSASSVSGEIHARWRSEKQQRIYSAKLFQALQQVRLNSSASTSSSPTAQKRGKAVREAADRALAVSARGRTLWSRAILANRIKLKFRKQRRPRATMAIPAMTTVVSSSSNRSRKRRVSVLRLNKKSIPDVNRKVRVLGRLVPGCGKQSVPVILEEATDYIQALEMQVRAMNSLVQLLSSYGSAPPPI
Put plainly: co-IP; FLAG-RSA1 and HA-RITF1 co-expressed in tobacco (Nicotiana benthamiana) leaves; extract (50 mM Tris-HCl pH 8.0, 150 mM NaCl, 2 mM EDTA, 1% Triton X-100) precipitated with anti-HA and protein A agarose, blot with anti-FLAG or anti-HA.

Assay [3] has as its target T1, RSA1, bait RSA1-pDEST32 (Arabidopsis thaliana). The assay can be described thus: two-hybrid; RSA1-pDEST32 (bait) and RITF1-pDEST22 (prey), ProQuest Two-Hybrid System, yeast strain AH109, x-gal assay and growth on SD-L-W-H+3-AT.
For assay [4], the target named is T3, RSA1-nLUC (Arabidopsis thaliana) (UniProt F4IS91).
T3 sequence: T1 sequence
Put plainly: split reporter; Split-LUC: RSA1-nLUC and RITF1-cLUC co-infiltrated with 35S:p19 into tobacco leaves, 3 d, CCD camera.

Assay [5] concerns the target T4, RSA1-nYFP (Arabidopsis thaliana) (UniProt F4IS91).
T4 sequence: T1 sequence
Put plainly: split reporter; BiFC: RSA1-nYFP and RITF1-cYFP co-transfected into Arabidopsis leaf protoplasts, confocal microscopy.

Assay [6] addresses T4, RSA1-nYFP (Arabidopsis thaliana). The assay can be described thus: split reporter; BiFC: RSA1-nYFP and RITF1-cYFP co-infiltrated with 35S:p19 into tobacco (Nicotiana benthamiana) leaves, 3 d, confocal microscopy of epidermal cells.

These are yes or no findings as the source states them, for the method shown. For some assays here: Binding seen in cells or lysates may run through a third protein. Some binding calls cover weakened binding; strength is not graded here. For some assays here: Tags and fused reporters may be left off the sequences shown.

B1: RITF1 homolog encoded by At3g17100, prey in pDEST22 (protein, UniProt Q9LSN7 1-230)
chain: MESISPVSNQLLQPTTTSSNSDRSRRKRKKKSSPSSVEKSPSPSISLEKWRSEKQQQIYSTKLVHALRELRISQQPSSSSSSSIPRGGRAVREVADRALAVAARGKTLWSRAILSKAVKLKFRKHKRQRISNPTTTTLTTGSIRSKKQRATVLRLKAKGLPAVQRKVKVLSRLVPGCRKQSLPVVLEETTDYIAAMEMQIRTMTAILSAVSSSPPPPTPGHEGGQTHMLG
Consider B1, for which the binding result in assay [1] was “no binding”.

B2: FLAG-RSA1 (protein, UniProt F4IS91-1 1-1340)
chain: T1 sequence
As for B2, the binding result in assay [2] is on record as “binds”.

B3: RITF1 homolog encoded by At3g05800, prey in pDEST22 (protein, UniProt Q9M9L6 1-211)
chain: MSSEQGNGSNPSTSPEVEGTKTIPFRRRLQRGQRVFAPKLMEALRRSRVSSEEAPVRHLSRRWRATTAQKVYSLKLYDALQRSRRSATVRDTADKVLATTARGATRWSRAILVSRFGTSLRRRRNTKPASALAAAIRGSGGSGRRRKLSAVGNRVRVLGGLVPGCRRTALPELLDETADYIAALEMQVRAMTALSKILSELQPSTNLGSAL
For B3, the binding result in assay [1] was “no binding”.

B4: RITF1 homolog encoded by At1g09250, prey in pDEST22 (protein, UniProt O80482 1-207)
chain: MVESLFPSIENTGESSRRKKPRISETAEAEIEARRVNEESLKRWKTNRVQQIYACKLVEALRRVRQRSSTTSNNETDKLVSGAAREIRDTADRVLAASARGTTRWSRAILASRVRAKLKKHRKAKKSTGNCKSRKGLTETNRIKLPAVERKLKILGRLVPGCRKVSVPNLLDEATDYIAALEMQVRAMEALAELLTAAAPRTTLTGT
For the molecule B4, the binding entry in assay [1] was “no binding”.

B5: RITF1, prey RITF1-pDEST22 (protein, UniProt Q9C8Z9 1-221)
chain: T2 sequence
For B5, the binding entry in assay [3] is recorded as “binds”.

B6: RITF1-cLUC (protein, UniProt Q9C8Z9 1-221)
chain: T2 sequence
B6: the binding entry in assay [4] was “binds”.

B7: RITF1-cYFP (protein, UniProt Q9C8Z9 1-221)
chain: T2 sequence
In the case of B7, the binding result in assay [5] and in assay [6] was “binds” in each case.
